No constants are given. Whether binding was seen depends on the method and setting. In cells and extracts the contact can be indirect. Some entries that bind do so weakly or less than the wild type. Where a sequence is shown, tags or fusion partners need not be part of it.
Experiments:
[1] = molecular target: Cot/Tp12 (full-length) (human) (UniProt P41279); assay: reciprocal co-immunoprecipitation (anti-Cot IP with anti-FLAG blot, and anti-FLAG IP with anti-Cot blot) from cotransfected 293T cells
[2] = molecular target: Cot/Tp12 with truncation of the C-terminal 71 amino acids (human) (UniProt P41279); assay: co-immunoprecipitation from cotransfected 293T cells
[3] = molecular target: Cot/Tp12 (full-length) (human) (UniProt P41279); assay: anti-FLAG co-immunoprecipitation from KSR-2-FLAG-transfected 293T lysate, Western blot
IRAK1 = IRAK1 (UniProt P51617); assay: as above
P.MEK1 = P.MEK1 (UniProt Q02750); assay: as above

Protein sequences, listed by entry. Tags and fused reporters are not part of them. Lines headed by an entry give the natural chain unless they say otherwise; changes in a name come on top. Residues count along the entry.
UniProt P41279: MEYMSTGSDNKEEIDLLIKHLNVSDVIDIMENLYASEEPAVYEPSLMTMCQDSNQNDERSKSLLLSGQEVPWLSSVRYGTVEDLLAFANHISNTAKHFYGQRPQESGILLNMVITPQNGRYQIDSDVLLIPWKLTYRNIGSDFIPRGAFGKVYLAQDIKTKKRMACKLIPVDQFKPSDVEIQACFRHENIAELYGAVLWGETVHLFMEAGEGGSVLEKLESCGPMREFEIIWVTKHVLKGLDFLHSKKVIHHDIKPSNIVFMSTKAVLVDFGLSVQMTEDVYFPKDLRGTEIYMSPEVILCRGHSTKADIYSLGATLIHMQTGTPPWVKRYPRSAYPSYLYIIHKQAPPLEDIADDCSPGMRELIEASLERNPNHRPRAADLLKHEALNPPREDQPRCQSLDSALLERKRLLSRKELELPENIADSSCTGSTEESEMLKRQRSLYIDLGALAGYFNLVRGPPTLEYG
Cot/Tp12 with truncation of the C-terminal 71 amino acids: residues 1-396 of P41279
UniProt P51617: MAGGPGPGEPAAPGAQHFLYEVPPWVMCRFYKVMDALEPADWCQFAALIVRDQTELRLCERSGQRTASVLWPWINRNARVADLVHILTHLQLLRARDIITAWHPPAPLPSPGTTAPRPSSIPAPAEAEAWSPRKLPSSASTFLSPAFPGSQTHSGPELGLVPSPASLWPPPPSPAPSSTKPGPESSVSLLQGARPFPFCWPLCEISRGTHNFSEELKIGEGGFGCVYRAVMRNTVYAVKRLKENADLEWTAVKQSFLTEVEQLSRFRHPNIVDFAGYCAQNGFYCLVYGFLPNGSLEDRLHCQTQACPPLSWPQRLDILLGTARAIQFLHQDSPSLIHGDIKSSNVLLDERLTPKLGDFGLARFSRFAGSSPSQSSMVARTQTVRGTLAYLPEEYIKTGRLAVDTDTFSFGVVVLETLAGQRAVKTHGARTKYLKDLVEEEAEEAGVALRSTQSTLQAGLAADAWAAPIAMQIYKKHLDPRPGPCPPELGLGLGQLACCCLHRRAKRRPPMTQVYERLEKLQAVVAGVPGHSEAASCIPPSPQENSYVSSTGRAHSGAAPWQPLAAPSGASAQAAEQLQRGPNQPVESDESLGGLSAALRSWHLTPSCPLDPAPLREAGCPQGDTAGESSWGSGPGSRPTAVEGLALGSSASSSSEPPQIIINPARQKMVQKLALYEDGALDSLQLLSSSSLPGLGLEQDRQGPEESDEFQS

Measured: binding

B1: KSR-2-CD-FLAG (catalytic domain of human KSR-2 with the FLAG epitope at its carboxyl terminus) (protein)
chain: EQLEIGELIGKGRFGQVYHGRWHGEVAIRLIDIERDNEDQLKAFKREVMAYRQTRHENVVLFMGACMSPPHLAIITSLCKGRTLYSVVRDAKIVLDVNKTRQIAQEIVKGMGYLHAKGILHKDLKSKNVFYDNGKVVITDFGLFSISGVLQAGRREDKLRIQNGWLCHLAPEIIRQLSPDTEEDKLPFSKHSDVFALGTIWYELHAREWPFKTQPAEAIIWQMGTGMKPNLSQIGMGKEISDILLFCWAFEQEERPTFTKLMDMLEKLPKRNRRLSHPGHFWKSAELDYKDDDDK
binds: [1]

B2: hKSR-2-FLAG (full-length human KSR-2 with the FLAG epitope at its carboxyl terminus) (protein)
chain: MTDEQVCETVEKYGANREECARLNASLSCLRNVHMSGGNLSKQDWTIQWPTTETGKENNPVCPPEPTPWIRTHLSQSPRVPSKCVQHYCHTSPTPGAPVYTHVDRLTVDAYPGLCPPPPLESGHRSLPPSPRQRHAVRTPPRTPNIVTTVTPPGTPPMRKKNKLKPPGTPPPSSRKLIHLIPGFTALHRSKSHEFQLGHRVDEAHTPKAKKKSKPLNLKIHSSVGSCENIPSQQRSPLLSERSLRSFFVGHAPFLPSTPPVHTEANFSANTLSVPRWSPQIPRRDLGNSIKHRFSTKYWMSQTCTVCGKGMLFGLKCKNCKLKCHNKCTKEAPPCHLLIIHRGDPARLVRTESVPCDINNPLRKPPRYSDLHISQTLPKTNKINKDHIPVPYQPDSSSNPSSTTSSTPSSPAPPLPPSATPPSPLHPSPQCTRQQKNFNLPASHYYKYKQQFIFPDVVPVPETPTRAPQVILHPVTSNPILEGNPLLQIEVEPTSENEEVHDEAEESEDDFEEMNLSLLSARSFPRKASQTSIFLQEWDIPFEQLEIGELIGKGRFGQVYHGRWHGEVAIRLIDIERDNEDQLKAFKREVMAYRQTRHENVVLFMGACMSPPHLAIITSLCKGRTLYSVVRDAKIVLDVNKTRQIAQEIVKGMGYLHAKGILHKDLKSKNVFYDNGKVVITDFGLFSISGVLQAGRREDKLRIQNGWLCHLAPEIIRQLSPDTEEDKLPFSKHSDVFALGTIWYELHAREWPFKTQPAEAIIWQMGTGMKPNLSQIGMGKEISDILLFCWAFEQEERPTFTKLMDMLEKLPKRNRRLSHPGHFWKSAELDYKDDDDK
binds: all assays above

Reference: patent US20040265961A1
